# PubChem BioAssay AID1224830, NIAID, 2016
# Screen: 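Genes whose knock-down alters the TNF-alpha reporter response to LPS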 (primary screen)
# System: human THP-1 monocytic leukaemia cells, TNF dual-luciferase reporter clone, PMA-differentiated to macrophage-like cells
# Reagent: siRNA pool against human genes, 50 nM
# Timing: LPS for 4 h, given about 3 days after siRNA transfection
# Conditions: bacterial LPS (TLR4 ligand), 10 ng/ml
# Read-out: 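TNF firefly reporter luminescence divided by renilla, normalised to the plate median, then turned into a robust z-score for each replicate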
# Scale: TNF reporter robust z-score: higher = stronger TNF reporter response to LPS
# Rule for the call: 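Each well counts as active if its z-score is over 2.8 or under -1.5; controls are left without a call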
# The deposit covers about 18,000 reagents; shown is a random part of them. About 2,900 of them (16%) were called active. 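Calls are made per well; low scores hint the gene aids the LPS response, high scores that it dampens it.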 Entries without a mark were called inactive. Repeated entries: four replicate wells of each siRNA pool.
gene knocked down,TNF reporter robust z-score
PTPN3 (GeneID 5774),5.42 (active)
PTPN3 (GeneID 5774),0.44
PTPN3 (GeneID 5774),4.03 (active)
PTPN3 (GeneID 5774),2.39
ZNF266 (GeneID 10781),1.46
ZNF266 (GeneID 10781),0.99
ZNF266 (GeneID 10781),0.69
ZNF266 (GeneID 10781),0.7
ZBTB14 (GeneID 7541),0.25
ZBTB14 (GeneID 7541),0.64
ZBTB14 (GeneID 7541),0.21
ZBTB14 (GeneID 7541),0.55
TARS2 (GeneID 80222),-0.19
TARS2 (GeneID 80222),0.37
TARS2 (GeneID 80222),-0.29
TARS2 (GeneID 80222),0.94
MRPL40 (GeneID 64976),-1.53 (active)
MRPL40 (GeneID 64976),-0.87
MRPL40 (GeneID 64976),-1
MRPL40 (GeneID 64976),-0.76
VPS16 (GeneID 64601),-1.14
VPS16 (GeneID 64601),-0.92
VPS16 (GeneID 64601),-1.51 (active)
VPS16 (GeneID 64601),-1.08
SH3BP5L (GeneID 80851),0.27
SH3BP5L (GeneID 80851),0.2
SH3BP5L (GeneID 80851),-0.42
SH3BP5L (GeneID 80851),0.25
ARID3B (GeneID 10620),-0.49
ARID3B (GeneID 10620),-1.29
ARID3B (GeneID 10620),-0.26
ARID3B (GeneID 10620),-0.46
RAB24 (GeneID 53917),-1.36
RAB24 (GeneID 53917),0.21
RAB24 (GeneID 53917),-0.18
RAB24 (GeneID 53917),-0.26
SMAD4 (GeneID 4089),-1.03
SMAD4 (GeneID 4089),-1.44
SMAD4 (GeneID 4089),-1.53 (active)
SMAD4 (GeneID 4089),-0.7
HOXD3 (GeneID 3232),0.71
HOXD3 (GeneID 3232),1.4
HOXD3 (GeneID 3232),0.33
HOXD3 (GeneID 3232),-0.22
FAT2 (GeneID 2196),-1.04
FAT2 (GeneID 2196),-0.94
FAT2 (GeneID 2196),-1.36
FAT2 (GeneID 2196),-0.57
FAM9A (GeneID 171482),2.03
FAM9A (GeneID 171482),2.13
FAM9A (GeneID 171482),-0.05
FAM9A (GeneID 171482),-0.4
ZNF705A (GeneID 440077),-0.19
ZNF705A (GeneID 440077),-0.22
ZNF705A (GeneID 440077),0.82
ZNF705A (GeneID 440077),1.62
OXSR1 (GeneID 9943),0.58
OXSR1 (GeneID 9943),-0.87
OXSR1 (GeneID 9943),-0.81
OXSR1 (GeneID 9943),-0.33
TRAPPC6A (GeneID 79090),0.1
TRAPPC6A (GeneID 79090),-0.15
TRAPPC6A (GeneID 79090),-0.55
TRAPPC6A (GeneID 79090),0.31
PRDX3 (GeneID 10935),0.74
PRDX3 (GeneID 10935),0.81
PRDX3 (GeneID 10935),-0.43
PRDX3 (GeneID 10935),0.73
OR10H4 (GeneID 126541),-0.58
OR10H4 (GeneID 126541),-0.69
OR10H4 (GeneID 126541),-1.77 (active)
OR10H4 (GeneID 126541),-0.5
FAM163B (GeneID 642968),0.22
FAM163B (GeneID 642968),1.1
FAM163B (GeneID 642968),0.44
FAM163B (GeneID 642968),1.03
SAFB2 (GeneID 9667),-0.22
SAFB2 (GeneID 9667),0.31
SAFB2 (GeneID 9667),-0.51
SAFB2 (GeneID 9667),-0.31
CYP8B1 (GeneID 1582),1.35
CYP8B1 (GeneID 1582),1.85
CYP8B1 (GeneID 1582),0.85
CYP8B1 (GeneID 1582),-0.15
UBE2Q1 (GeneID 55585),0.79
UBE2Q1 (GeneID 55585),0.03
UBE2Q1 (GeneID 55585),0.13
NPHP3 (GeneID 27031),-0.03
NPHP3 (GeneID 27031),1.05
NPHP3 (GeneID 27031),0.26
NPHP3 (GeneID 27031),0.56
BPIFA2 (GeneID 140683),-0.93
BPIFA2 (GeneID 140683),-0.34
BPIFA2 (GeneID 140683),-0.8
BPIFA2 (GeneID 140683),-0.38
TSPAN7 (GeneID 7102),0.97
TSPAN7 (GeneID 7102),1.92
TSPAN7 (GeneID 7102),0.55
TSPAN7 (GeneID 7102),2.16
CTXN3 (GeneID 613212),-0.5
CTXN3 (GeneID 613212),0.35
CTXN3 (GeneID 613212),-0.27
CTXN3 (GeneID 613212),0.32
FYN (GeneID 2534),-0.09
FYN (GeneID 2534),-0.03
FYN (GeneID 2534),0.72
FYN (GeneID 2534),-0.17
SPX (GeneID 80763),0.65
SPX (GeneID 80763),1.28
SPX (GeneID 80763),-0.34
SPX (GeneID 80763),0.99
